Results are given in words; binding and its absence hold for the method and conditions named. Binding seen in cells or lysates may run through a third protein. Some binding calls cover weakened binding; strength is not graded here.

The chains behind the UniProt entries cited, without tags or fusion partners.
UniProt Q969H0: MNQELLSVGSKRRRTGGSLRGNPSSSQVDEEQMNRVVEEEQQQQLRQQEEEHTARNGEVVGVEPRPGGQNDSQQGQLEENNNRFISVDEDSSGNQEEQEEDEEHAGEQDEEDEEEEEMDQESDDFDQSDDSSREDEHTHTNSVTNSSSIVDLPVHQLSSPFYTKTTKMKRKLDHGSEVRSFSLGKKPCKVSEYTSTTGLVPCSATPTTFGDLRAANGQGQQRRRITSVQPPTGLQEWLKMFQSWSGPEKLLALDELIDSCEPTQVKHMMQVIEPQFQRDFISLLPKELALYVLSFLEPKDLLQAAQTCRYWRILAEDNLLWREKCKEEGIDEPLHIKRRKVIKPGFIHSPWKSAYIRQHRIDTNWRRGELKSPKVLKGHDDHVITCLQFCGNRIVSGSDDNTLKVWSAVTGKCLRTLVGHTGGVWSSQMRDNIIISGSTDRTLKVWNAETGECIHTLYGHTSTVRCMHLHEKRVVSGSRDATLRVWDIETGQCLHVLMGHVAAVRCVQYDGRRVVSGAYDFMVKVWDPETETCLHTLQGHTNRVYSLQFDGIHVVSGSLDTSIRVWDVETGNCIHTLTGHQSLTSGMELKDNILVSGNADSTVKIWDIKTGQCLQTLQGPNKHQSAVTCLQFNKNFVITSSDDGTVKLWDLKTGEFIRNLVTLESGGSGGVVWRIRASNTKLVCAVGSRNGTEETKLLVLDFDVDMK

This assay deals with T1, Tripartite motif containing 24 (human (endogenous in HT-29 and Caco-2)) (UniProt O15164).
T1 sequence: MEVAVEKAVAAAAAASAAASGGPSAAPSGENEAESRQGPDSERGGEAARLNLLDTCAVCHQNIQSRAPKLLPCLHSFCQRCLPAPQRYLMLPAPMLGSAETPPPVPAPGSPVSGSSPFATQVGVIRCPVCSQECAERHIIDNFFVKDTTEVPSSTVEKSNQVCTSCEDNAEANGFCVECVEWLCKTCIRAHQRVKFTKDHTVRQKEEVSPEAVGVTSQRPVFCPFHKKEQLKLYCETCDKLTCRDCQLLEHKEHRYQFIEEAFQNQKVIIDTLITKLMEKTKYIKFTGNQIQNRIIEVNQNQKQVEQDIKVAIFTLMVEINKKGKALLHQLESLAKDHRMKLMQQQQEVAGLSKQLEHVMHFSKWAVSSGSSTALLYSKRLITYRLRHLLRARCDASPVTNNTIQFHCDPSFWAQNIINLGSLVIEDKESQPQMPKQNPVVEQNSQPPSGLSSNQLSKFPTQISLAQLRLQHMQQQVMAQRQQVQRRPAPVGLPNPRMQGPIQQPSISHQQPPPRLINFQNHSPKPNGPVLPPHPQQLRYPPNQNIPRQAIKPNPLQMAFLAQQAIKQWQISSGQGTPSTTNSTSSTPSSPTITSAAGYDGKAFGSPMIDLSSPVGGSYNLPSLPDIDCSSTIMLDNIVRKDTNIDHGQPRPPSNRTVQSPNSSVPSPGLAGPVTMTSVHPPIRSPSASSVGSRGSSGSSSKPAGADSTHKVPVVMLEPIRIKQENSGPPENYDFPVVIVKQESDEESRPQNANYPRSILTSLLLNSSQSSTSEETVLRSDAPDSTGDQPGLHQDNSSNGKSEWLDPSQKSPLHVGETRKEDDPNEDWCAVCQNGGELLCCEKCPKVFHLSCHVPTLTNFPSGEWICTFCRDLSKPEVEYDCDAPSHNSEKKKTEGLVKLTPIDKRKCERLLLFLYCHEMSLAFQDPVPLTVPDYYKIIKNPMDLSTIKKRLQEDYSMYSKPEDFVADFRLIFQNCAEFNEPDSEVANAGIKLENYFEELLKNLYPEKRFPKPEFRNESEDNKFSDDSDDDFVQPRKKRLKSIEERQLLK
The experiment in a line: co-IP; 1 mg lysate of HT-29 or Caco-2 cells (IP lysis buffer) with 2 ug anti-FBXW7 or anti-TRIM24 antibody or normal IgG, 4 °C overnight; Protein A/G beads 4 °C 4 h; Western blot; also in cells transfected with sh-circ_RNF13 (increased association). On the technique in general: In western blotting, separated proteins are transferred to a membrane and probed.

As for “F-box and WD repeat domain-containing 7 (from UniProt Q969H0 1-707)”, the binding entry was “binds”.
